Measured data: PubChem BioAssay AID1259308 (NCATS, 2017)

Test: 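Knock-downs that increase output of a recombinant reporter protein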 (primary screen)
Cell system: human HEK293 embryonic kidney cells stably expressing firefly luciferase (HEK-CMV-Luc2-Hygro)
Reagent: single siRNA against human genes, 0.8 pmol siRNA per well
Time to read-out: 72 h
Measured: 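Luciferase light (ONE-Glo) measured on one replicate plate set and viability (CellTiter-Glo) on the other, scaled to a negative control siRNA, with robust z-scores and luciferase per cell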
Scale: total luciferase, z-score and total luciferase, % of control: higher = more reporter protein produced
Active means: 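An siRNA counts as active if its total luciferase robust z-score exceeds 3; genes with two or more such siRNAs out of three were retested with fresh siRNAs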
Meaning of the calls: active = raised luciferase; inactive = no rise
The whole screen tested about 59,000 reagents; below is a random part of them. About 1,510 of all reagents (2.6%) were called active. 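Calls use total luciferase alone and ignore viability, so some active siRNAs may act by altering cell number.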 Unmarked entries are inactive. Reagents against one gene are numbered here. Further read-outs or replicates are left out here.

With knock-down of HRNR (hornerin) #1, the record shows total luciferase, z-score 2.26; total luciferase, % of control 127. Against HRNR (hornerin) #2, the entry reads total luciferase, z-score 1.69; total luciferase, % of control 116. For HRNR (hornerin) #3 the deposit lists total luciferase, z-score 0.00192; total luciferase, % of control 81.9. After knock-down of PRKCQ (protein kinase C theta) #1 the results were total luciferase, z-score 0.56; total luciferase, % of control 93. Against PRKCQ (protein kinase C theta) #2, the values are total luciferase, z-score -0.558; total luciferase, % of control 70.8. After knock-down of PRKCQ (protein kinase C theta) #3, the record shows total luciferase, z-score 1.13; total luciferase, % of control 104.

TWNK (twinkle mtDNA helicase) #1 showed total luciferase, z-score 0.177; total luciferase, % of control 85.4. For TWNK (twinkle mtDNA helicase) #2 the deposit lists total luciferase, z-score 1.17; total luciferase, % of control 105. TWNK (twinkle mtDNA helicase) #3 scored total luciferase, z-score 0.209; total luciferase, % of control 86.1. KRABD5P1 (KRABD5 pseudogene 1) #1 gave total luciferase, z-score 1.5; total luciferase, % of control 112. For KRABD5P1 (KRABD5 pseudogene 1) #2, the entry reads total luciferase, z-score 2.06; total luciferase, % of control 123. For KRABD5P1 (KRABD5 pseudogene 1) #3, the entry reads total luciferase, z-score 0.326; total luciferase, % of control 88.4.

TRMT11 (tRNA methyltransferase 11) #1 gave total luciferase, z-score 0.761; total luciferase, % of control 97. With knock-down of TRMT11 (tRNA methyltransferase 11) #2, the record shows total luciferase, z-score -1.35; total luciferase, % of control 55. TRMT11 (tRNA methyltransferase 11) #3 gave total luciferase, z-score -0.752; total luciferase, % of control 66.9. TMEM18 (transmembrane protein 18) #1 showed total luciferase, z-score 0.184; total luciferase, % of control 85.5. After knock-down of TMEM18 (transmembrane protein 18) #2, the screen gave total luciferase, z-score -0.833; total luciferase, % of control 65.3. Silencing of TMEM18 (transmembrane protein 18) #3 resulted in: total luciferase, z-score 0.0764; total luciferase, % of control 83.4.

After knock-down of OR6S1 (olfactory receptor family 6 subfamily S member 1) #1, the record shows total luciferase, z-score -1.15; total luciferase, % of control 58.9. Depletion of OR6S1 (olfactory receptor family 6 subfamily S member 1) #2 resulted in: total luciferase, z-score -1.23; total luciferase, % of control 57.5. Knock-down of OR6S1 (olfactory receptor family 6 subfamily S member 1) #3 gave: total luciferase, z-score -1.29; total luciferase, % of control 56.3. HDHD2 (haloacid dehalogenase like hydrolase domain containing 2) #1 gave total luciferase, z-score 0.572; total luciferase, % of control 93.3. With knock-down of HDHD2 (haloacid dehalogenase like hydrolase domain containing 2) #2 the results were total luciferase, z-score -0.88; total luciferase, % of control 64.4. After knock-down of HDHD2 (haloacid dehalogenase like hydrolase domain containing 2) #3 the results were total luciferase, z-score -0.0233; total luciferase, % of control 81.4.

For CHIC2 (cysteine rich hydrophobic domain 2) #1, the entry reads total luciferase, z-score 0.86; total luciferase, % of control 99. Silencing of CHIC2 (cysteine rich hydrophobic domain 2) #2 resulted in: total luciferase, z-score 3.08 (active); total luciferase, % of control 143. CHIC2 (cysteine rich hydrophobic domain 2) #3 scored total luciferase, z-score -0.221; total luciferase, % of control 77.5. After knock-down of INTU (inturned planar cell polarity protein) #1 the results were total luciferase, z-score 0.86; total luciferase, % of control 99. INTU (inturned planar cell polarity protein) #2 scored total luciferase, z-score 0.582; total luciferase, % of control 93.5. Knock-down of INTU (inturned planar cell polarity protein) #3 gave: total luciferase, z-score 0.601; total luciferase, % of control 93.8.

Silencing of ACSS2 (acyl-CoA synthetase short chain family member 2) #1 gave: total luciferase, z-score -0.515; total luciferase, % of control 71.6. For ACSS2 (acyl-CoA synthetase short chain family member 2) #2, the entry reads total luciferase, z-score 1.08; total luciferase, % of control 103. After knock-down of ACSS2 (acyl-CoA synthetase short chain family member 2) #3, the screen gave total luciferase, z-score -0.783; total luciferase, % of control 66.3.

Hits, of those listed so far:
CHIC2 (cysteine rich hydrophobic domain 2) #2: total luciferase, z-score = 3.08 (active); total luciferase, % of control = 143
